“Also recorded” adds a separate entry of the source. For at least one compound, name, drawing or mass did not settle the structure.
Tests used:
[1] = tested on: venom MP (Sistrurus venom metalloprotease activity); format: biochemical, Viper, elapid and colubrid venom; details: FIG. 4, Table 2; comparison of hydroxamate metalloprotease inhibitors
[2] = tested on: LPS/OA induced ARDS; design: species or system C57BL/6 mice; details: mouse, in vivo, po, 10 mg/kg
[3] = tested on: vero epithelial cells (CCL-81); test: ECIS study of vero epithelial cells exposed to snake venom; format: cell-based, African green monkey; details: rapidly toxic doses of Echis ocellatus venom; drugs applied following exposure to venom
[4] = tested on: vero epithelial cells (CCL-81); test: ECIS electrical wounding / wound healing of vero cells in presence of venom; format: cell-based, African green monkey; details: rapidly toxic doses of S. miliarius venom

| SMILES | potency (IC50) against venom metalloprotease activity, in words [1] | damage from LPS/OA induced ARDS (histopathology) [2] | cellular junction tightness [3] | cellular junction tightness [4] |
| --- | --- | --- | --- | --- |
| CNC(=O)[C@H](Cc1ccccc1)NC(=O)[C@H](CC(C)C)[C@H](CSc1cccs1)C(=O)NO [batimastat] | good to excellent performance | – | – | – |
| CC1(C)SCCN(S(=O)(=O)c2ccc(Oc3ccncc3)cc2)[C@H]1C(=O)NO [prinomastat] | superior in potency to anthrax lethal factor inhibitor | outperformed all inhibitors; also recorded: rescue and reduce damage | increase cellular junction tightness | increase cellular junction tightness |

— patent US12564575B2 (priority 2019, dated 2026)
